Patent US20250213691A1
No constants are given. Whether binding was seen depends on the method and setting. Some entries that bind do so weakly or less than the wild type. For some assays here: Tags and fused reporters may be left off the sequences shown.

By UniProt entry, the sequences of proteins in these tests, tags left out. Where a name states a change or a piece, a line headed by the entry shows the natural chain unless it says otherwise. Chains listed by the source or under a name are the forms on record and can include a tag or linker.
MSLN-His (Q13421, form named): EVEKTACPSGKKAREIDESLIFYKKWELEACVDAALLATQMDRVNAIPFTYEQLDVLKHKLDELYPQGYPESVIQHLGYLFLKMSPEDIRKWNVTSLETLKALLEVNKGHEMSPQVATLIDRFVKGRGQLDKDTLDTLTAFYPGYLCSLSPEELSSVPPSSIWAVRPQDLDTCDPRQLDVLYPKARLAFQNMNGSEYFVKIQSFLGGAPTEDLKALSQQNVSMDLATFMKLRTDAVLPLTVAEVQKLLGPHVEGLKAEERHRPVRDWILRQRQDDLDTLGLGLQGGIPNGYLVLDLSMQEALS

Columns and labels:
MSLN-His (human) [1] = biological target: MSLN-His (human) (UniProt Q13421); assay: ELISA, VHH-Fc fusion protein on MSLN
MSLN-His (human) [2] = biological target: MSLN-His (human) (UniProt Q13421); assay: ELISA on MSLN, positive control

Row | binding (MSLN-His (human) [1]) | binding (MSLN-His (human) [2]) | Binder
1 | binds | – | MSLN 3 VHH-Fc fusion protein (Fc fusion, not shown: a dimerising Fc or GST) EVQLVESGGGLVQPGGSLRLSCAASGNTLSRYNMGWFRQAPGKGRELVAYISWRGGSTYYPDSVEGRFTISRDNAKRMVYLQMNSLRAEDTAVYYCAASIKTADPDDYDYWGQGTQVTVSS
2 | binds | – | MSLN 41 VHH-Fc fusion protein (Fc fusion, not shown: a dimerising Fc or GST) EVQLVESGGGLVQPGGSLRLSCAASGRTFSYNAMGWFRQAPGKGRELVAAITWRGGYTYYPDSVEGRFTISRDNAKRMVYLQMNSLRAEDTAVYYCAAATARVYADDSYLNESGYDYWGQGTQVTVSS
3 | binds | – | MSLN 36 VHH-Fc fusion protein (Fc fusion, not shown: a dimerising Fc or GST) EVQLVESGGGLVQPGGSLRLSCAASGITFSNYVMGWFRQAPGKGRELVAAITASGGNTYYPDSVEGRFTISRDNAKRMVYLQMNSLRAEDTAVYYCAAKRAYWGSDGDYQGYYYYDYWGQGTQVTVSS
4 | binds | – | MSLN 42 VHH-Fc fusion protein (Fc fusion, not shown: a dimerising Fc or GST) EVQLVESGGGLVQPGGSLRLSCAASGRTLSSNVMGWFRQAPGKGRELVAAITPRGSGTYYPDSVEGRFTISRDNAKRMVYLQMNSLRAEDTAVYYCAARFAPDPAFSVYWSENYYDYWGQGTQVTVSS
5 | binds | – | MSLN 27 VHH-Fc fusion protein (Fc fusion, not shown: a dimerising Fc or GST) EVQLVESGGGLVQPGGSLRLSCAASGLIFSTNAMGWFRQAPGKGRELVAAISWRGGYTYYPDSVEGRFTISRDNAKRMVYLQMNSLRAEDTAVYYCAAGTARIDYLSQDGYNYWGQGTQVTVSS
6 | binds | – | MSLN 10 VHH-Fc fusion protein (Fc fusion, not shown: a dimerising Fc or GST) EVQLVESGGGLVQPGGSLRLSCAASGDTLSTYAMGWFRQAPGKGRELVAGITSSGSGTYYPDSVEGRFTISRDNAKRMVYLQMNSLRAEDTAVYYCAARRIGPVYDPYSVYNYWGQGTQVTVSS
7 | – | binds | P4 (positive antibody) (antibody, V domains shown) VH: QVQLQQSGPGLVTPSQTLSLTCAISGDSVSSNSATWNWIRQSPSRGLEWLGRTYYRSKWYNDYAVSVKSRMSINPDTSKNQFSLQLNSVTPEDTAVYYCARGMMTYYYGMDVWGQGTTVTVSS VL: QPVLTQSSSLSASPGASASLTCTLRSGINVGPYRIYWYQQKPGSPPQYLLNYKSDSDKQQGSGVPSRFSGSKDASANAGVLLISGLRSEDEADYYCMIWHSSAAVFGGGTQLTVLS
8 | binds | – | MSLN 16 VHH-Fc fusion protein (Fc fusion, not shown: a dimerising Fc or GST) EVQLVESGGGLVQPGGSLRLSCAASGRILSNYNMGWFRQAPGKGRELVAYISWGGSRTYYPDSVEGRFTISRDNAKRMVYLQMNSLRAEDTAVYYCAATINSASDYDYWGQGTQVTVSS
